Assay results taken from the supplement of paper PMC5711842.
Single values of this set are uncertain.

Each compound was assayed on Danio rerio embryo (assay: lowest lethal concentration (of 2, 10, 50 µM tested), 10-36 hpf treatment; higher = less toxic). Conditions: treatment window: 10-36 hpf.

Structure (SMILES) | lowest lethal concentration [µM]
Cc1cc(I)ccc1Nc1c(C(=O)NOCC2CC2)cc(F)c(F)c1F | 50
COc1ccc(C2=N[C@@H](c3ccc(Cl)cc3)[C@@H](c3ccc(Cl)cc3)N2C(=O)N2CCNC(=O)C2)c(OC(C)C)c1 [Nutlin-3] | > 50
Nc1[nH]nc2nnc(-c3c(-c4ccccc4)nn4ccccc34)cc12 | > 50
Cc1cc([N+](=O)[O-])ccc1NS(=O)(=O)c1cc(Cl)ccc1Cl [FH535] | 10
COc1nc(-c2ccc3c(c2)OCO3)n(-c2ccc(NC(=O)CSc3ccccc3)cc2)n1 [SecinH3] | > 50
CCCCC[C@H](O)/C=C/[C@@H]1[C@H]2C/C(=C/CCCC(=O)O)C[C@H]2C[C@H]1O [Carbacyclin] | > 50
O=C1CCCC(=O)C1CC1C(=O)CCCC1=O [Apoptosis Inhibitor] | 50
O=C(C=Cc1ccccc1)NC(NC(=S)Nc1ccc(Cl)cc1)C(Cl)(Cl)Cl (configuration not stated) [Sal003] | > 50
COC(=O)c1ccc(/C=C/c2ccc([N+](=O)[O-])o2)o1 [betaARK1 Inhibitor] | > 50
Cc1ccc(-c2cn3c4c(sc3n2)CCCC4)cc1 [QB102] | 50
O=c1c2ccccc2[nH]c(=S)n1CCN1CCC(=C(c2ccc(F)cc2)c2ccc(F)cc2)CC1 [Diacylglycerol Kinase Inhibitor II] | > 50
COc1cccc(-c2cc(=O)c3ccccc3o2)c1N | 50
COc1ccc(Cl)cc1NC(=O)Nc1cc(C)nc2ccccc12 [IGF-1R Inhibitor II] | > 50
O=c1cc(N2CCOCC2)oc2c(-c3ccccc3)cccc12 | 50
O=C1C(Nc2ccccc2)=CC(=O)c2ncccc21 | 50
CN(C)S(=O)(=O)c1ccc2c(c1)/C(=C/c1cc3c([nH]1)CCCC3)C(=O)N2 [SU6656] | 50

Structure (SMILES) | lowest lethal concentration [µM]
CCCOc1ccc(C=C2SC(=O)NC2=O)cc1 | > 50
O=C1CC(=O)c2c(Cl)c(Cl)c(Cl)c(Cl)c21 [UCH 23] | > 50
N#C/C(=C(/N)Sc1ccccc1N)c1cccc(C(O)c2ccncc2)c1 (configuration not stated) [MEK Inhibitor I] | > 50
CCCC[C@@H](C)[C@@H](OC(=O)C[C@@H](CC(=O)O)C(=O)O)[C@H](C[C@@H](C)C[C@H](O)CCCC[C@@H](O)C[C@H](O)[C@H](C)N)OC(=O)C[C@@H](CC(=O)O)C(=O)O [Fumonisin B1] | > 50
O=C1C2CCN(CC2)C1(CO)CO [PRIMA-1] | > 50
C[S+]([O-])c1ccc(-c2nc(-c3ccc(F)cc3)c(-c3ccncc3)[nH]2)cc1 (configuration not stated) | > 50
Cc1cc(C(=O)N2CCN(c3cccc(Cl)c3)CC2)n(-c2ccccc2)n1 [XRP44X] | 10
CC(=O)N[C@@H](CSC/C=C(\C)CC/C=C(\C)CCC=C(C)C)C(=O)O [N-Acetyl-S-farnesyl-L-cysteine] | > 50
Cc1nn(-c2ccccc2)c(C)c1C=NN1CCN(Cc2ccccc2)CC1 [SANT-1] | > 50
N/C(=N\C(=O)c1nc(Cl)c(N)nc1N)NCc1ccccc1 [Benzamil] | > 50
COc1cc2c(c(OC)c1OC)-c1ccc(OC)c(=O)cc1C(NC(C)=O)CC2 (configuration not stated) [Colchine] | > 50
C[C@H]1COC2=C1C(=O)C(=O)c1c2ccc2c1CCCC2(C)C [Cryptotanshinone] | 50
CC(=O)OCOC(c1ccc2ccccc2c1)P(=O)(OCOC(C)=O)OCOC(C)=O (configuration not stated) [HNMPA-(AM)3] | > 50
NCCNc1ncc(C(N)=O)c(Nc2cccc(C(F)(F)F)c2)n1 [Syk Inhibitor II] | > 50
CCOc1ccccc1-n1c(C(C)N2CCN(C(=O)COc3ccc(Cl)cc3)CC2)nc2ccccc2c1=O (configuration not stated) [Erastin] | > 50
CNC1CCC(N(Cc2cccc(-c3ccncc3)c2)C(=O)c2sc3ccccc3c2Cl)CC1 (configuration not stated) [Smoothened Agonist, SAG] | > 50

2 entries from above, as a markdown table.

| Structure (SMILES) | lowest lethal concentration [µM] |
| --- | --- |
| CC(=O)N[C@@H](CSC/C=C(\C)CC/C=C(\C)CCC=C(C)C)C(=O)O [N-Acetyl-S-farnesyl-L-cysteine] | > 50 |
| Cc1nn(-c2ccccc2)c(C)c1C=NN1CCN(Cc2ccccc2)CC1 [SANT-1] | > 50 |
